± gives the standard deviation of the averaged measurements. The entries are a selection whose mix differs from that of the whole data set. Most entries show no effect beyond the scatter of the controls.
Compound: Nc1ncnc2c1ncn2[C@@H]1O[C@H](COP(=O)(O)OP(=O)(O)NP(=O)(O)O)[C@@H](O)[C@H]1O [adenylyl imidodiphosphate]
Test: NP40-soluble protein abundance relative to vehicle (solubility fold change) (ratio); higher = more soluble protein in presence of AMP-PNP
Outline: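 Eight concentrations, 0.1 to 10 mM, were tested on Jurkat crude lysate for 10 min at room temperature and then 3 min at 37 °C, in three independent experiments. The lysate was solubilised with 0.8% NP40 and benzonase, ultracentrifuged, and the supernatant TMT-labelled for LC-MS/MS. Each value is the fold change against the detergent-processed vehicle in its own replicate, from vsn-normalised intensities.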

Protein sequences, listed by entry. Tags and fused reporters are not part of them. Lines headed by an entry give the natural chain unless they say otherwise; changes in a name come on top.
UniProt Q9NQG6: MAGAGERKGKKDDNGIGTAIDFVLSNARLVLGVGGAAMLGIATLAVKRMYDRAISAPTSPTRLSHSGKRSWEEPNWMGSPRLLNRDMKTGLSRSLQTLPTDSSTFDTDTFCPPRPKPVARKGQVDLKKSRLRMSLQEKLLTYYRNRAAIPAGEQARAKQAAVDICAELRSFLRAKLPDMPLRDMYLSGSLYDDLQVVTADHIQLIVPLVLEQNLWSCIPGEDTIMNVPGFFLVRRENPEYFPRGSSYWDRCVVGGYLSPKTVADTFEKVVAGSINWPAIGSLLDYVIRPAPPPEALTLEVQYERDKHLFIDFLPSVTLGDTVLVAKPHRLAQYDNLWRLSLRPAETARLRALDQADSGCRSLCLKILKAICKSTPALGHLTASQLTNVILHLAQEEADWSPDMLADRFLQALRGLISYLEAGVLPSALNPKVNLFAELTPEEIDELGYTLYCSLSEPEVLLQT
UniProt A2RTX5: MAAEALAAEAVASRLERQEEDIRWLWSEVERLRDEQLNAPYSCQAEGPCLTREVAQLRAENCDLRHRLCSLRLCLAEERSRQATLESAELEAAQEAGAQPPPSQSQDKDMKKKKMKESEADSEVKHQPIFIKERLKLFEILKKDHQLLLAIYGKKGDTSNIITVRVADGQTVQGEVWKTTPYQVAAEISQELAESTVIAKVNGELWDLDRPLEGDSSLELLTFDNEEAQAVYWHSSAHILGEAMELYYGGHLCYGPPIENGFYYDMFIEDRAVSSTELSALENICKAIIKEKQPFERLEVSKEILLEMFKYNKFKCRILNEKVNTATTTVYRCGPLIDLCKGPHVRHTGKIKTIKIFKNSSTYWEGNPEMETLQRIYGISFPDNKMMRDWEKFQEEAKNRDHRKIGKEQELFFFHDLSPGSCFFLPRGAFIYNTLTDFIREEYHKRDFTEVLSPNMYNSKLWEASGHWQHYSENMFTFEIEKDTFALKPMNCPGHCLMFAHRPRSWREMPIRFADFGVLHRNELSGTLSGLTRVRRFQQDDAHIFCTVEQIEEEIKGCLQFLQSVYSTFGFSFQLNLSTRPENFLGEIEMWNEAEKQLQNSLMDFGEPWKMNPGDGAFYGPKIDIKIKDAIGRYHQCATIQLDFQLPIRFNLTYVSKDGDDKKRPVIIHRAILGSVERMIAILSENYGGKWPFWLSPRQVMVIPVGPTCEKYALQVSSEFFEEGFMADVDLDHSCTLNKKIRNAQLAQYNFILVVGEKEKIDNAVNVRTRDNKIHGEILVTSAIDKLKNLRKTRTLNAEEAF
UniProt Q01415: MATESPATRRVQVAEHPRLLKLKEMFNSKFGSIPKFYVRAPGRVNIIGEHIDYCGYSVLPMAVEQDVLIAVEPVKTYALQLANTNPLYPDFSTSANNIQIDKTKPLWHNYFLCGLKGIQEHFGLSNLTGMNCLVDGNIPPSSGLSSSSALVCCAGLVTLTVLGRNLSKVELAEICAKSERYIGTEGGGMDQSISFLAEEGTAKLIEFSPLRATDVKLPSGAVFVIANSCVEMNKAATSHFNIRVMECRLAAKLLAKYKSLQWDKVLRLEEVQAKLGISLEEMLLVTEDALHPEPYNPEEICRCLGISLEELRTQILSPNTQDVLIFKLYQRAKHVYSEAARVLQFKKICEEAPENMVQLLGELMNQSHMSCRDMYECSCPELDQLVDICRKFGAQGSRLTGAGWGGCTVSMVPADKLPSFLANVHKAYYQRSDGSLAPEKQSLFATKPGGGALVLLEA
UniProt Q9UHQ4: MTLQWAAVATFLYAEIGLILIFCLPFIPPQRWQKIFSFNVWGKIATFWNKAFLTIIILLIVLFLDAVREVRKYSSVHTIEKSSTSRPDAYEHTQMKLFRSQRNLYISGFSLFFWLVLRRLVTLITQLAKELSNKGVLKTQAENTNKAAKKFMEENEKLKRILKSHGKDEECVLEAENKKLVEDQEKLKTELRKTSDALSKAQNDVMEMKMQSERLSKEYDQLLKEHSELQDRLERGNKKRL
UniProt P61619, whole entry: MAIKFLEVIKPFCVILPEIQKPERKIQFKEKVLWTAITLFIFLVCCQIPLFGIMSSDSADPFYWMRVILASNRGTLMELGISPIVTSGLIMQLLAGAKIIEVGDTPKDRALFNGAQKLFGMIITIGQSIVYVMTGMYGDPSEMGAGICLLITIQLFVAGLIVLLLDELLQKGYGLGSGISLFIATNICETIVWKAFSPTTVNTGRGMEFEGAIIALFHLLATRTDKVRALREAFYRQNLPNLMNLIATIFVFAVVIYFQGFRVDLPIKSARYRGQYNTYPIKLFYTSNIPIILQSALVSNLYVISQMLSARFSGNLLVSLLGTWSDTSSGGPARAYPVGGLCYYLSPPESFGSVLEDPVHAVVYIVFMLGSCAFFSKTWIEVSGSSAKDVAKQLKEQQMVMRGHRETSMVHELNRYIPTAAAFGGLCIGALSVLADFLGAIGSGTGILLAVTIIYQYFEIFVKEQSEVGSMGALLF
UniProt O43676, whole entry: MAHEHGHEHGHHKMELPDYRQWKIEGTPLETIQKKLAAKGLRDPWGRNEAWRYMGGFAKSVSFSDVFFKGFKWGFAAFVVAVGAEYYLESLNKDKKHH
UniProt P68366, whole entry: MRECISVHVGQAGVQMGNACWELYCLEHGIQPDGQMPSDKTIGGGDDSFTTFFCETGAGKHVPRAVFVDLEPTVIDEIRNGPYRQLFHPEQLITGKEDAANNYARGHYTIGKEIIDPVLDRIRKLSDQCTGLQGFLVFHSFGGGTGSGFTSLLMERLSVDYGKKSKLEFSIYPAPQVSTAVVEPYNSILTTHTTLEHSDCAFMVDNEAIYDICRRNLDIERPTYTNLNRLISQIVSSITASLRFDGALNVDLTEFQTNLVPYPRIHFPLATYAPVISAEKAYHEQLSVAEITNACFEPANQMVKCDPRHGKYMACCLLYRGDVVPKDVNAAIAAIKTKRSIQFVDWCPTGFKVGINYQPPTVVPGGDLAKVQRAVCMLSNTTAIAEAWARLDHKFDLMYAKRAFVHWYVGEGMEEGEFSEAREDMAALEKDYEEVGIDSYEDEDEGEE
UniProt B5ME19, whole entry, looked up: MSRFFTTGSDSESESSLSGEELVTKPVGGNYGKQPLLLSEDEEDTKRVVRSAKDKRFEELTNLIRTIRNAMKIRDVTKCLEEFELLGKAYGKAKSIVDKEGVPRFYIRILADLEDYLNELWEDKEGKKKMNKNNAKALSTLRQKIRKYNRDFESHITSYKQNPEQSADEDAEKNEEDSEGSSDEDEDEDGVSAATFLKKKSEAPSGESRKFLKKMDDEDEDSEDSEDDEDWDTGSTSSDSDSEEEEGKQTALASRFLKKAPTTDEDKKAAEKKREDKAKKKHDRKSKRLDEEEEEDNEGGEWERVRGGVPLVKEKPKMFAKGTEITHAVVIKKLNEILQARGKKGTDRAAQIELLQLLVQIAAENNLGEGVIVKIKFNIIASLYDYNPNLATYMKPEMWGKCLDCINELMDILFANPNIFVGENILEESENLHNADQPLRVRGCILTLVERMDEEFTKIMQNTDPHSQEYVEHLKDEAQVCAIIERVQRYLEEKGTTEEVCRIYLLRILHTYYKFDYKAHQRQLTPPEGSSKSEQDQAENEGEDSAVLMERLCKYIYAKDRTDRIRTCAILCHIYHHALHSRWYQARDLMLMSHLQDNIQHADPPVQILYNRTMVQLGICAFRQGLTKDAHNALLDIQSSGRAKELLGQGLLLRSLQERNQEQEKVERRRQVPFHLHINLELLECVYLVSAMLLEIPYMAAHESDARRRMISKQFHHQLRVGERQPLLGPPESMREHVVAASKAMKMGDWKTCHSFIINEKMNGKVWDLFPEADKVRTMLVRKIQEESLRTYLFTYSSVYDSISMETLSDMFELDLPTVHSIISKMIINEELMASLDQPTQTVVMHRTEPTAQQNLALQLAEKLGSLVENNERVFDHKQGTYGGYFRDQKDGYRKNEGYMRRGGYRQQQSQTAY
UniProt Q16773: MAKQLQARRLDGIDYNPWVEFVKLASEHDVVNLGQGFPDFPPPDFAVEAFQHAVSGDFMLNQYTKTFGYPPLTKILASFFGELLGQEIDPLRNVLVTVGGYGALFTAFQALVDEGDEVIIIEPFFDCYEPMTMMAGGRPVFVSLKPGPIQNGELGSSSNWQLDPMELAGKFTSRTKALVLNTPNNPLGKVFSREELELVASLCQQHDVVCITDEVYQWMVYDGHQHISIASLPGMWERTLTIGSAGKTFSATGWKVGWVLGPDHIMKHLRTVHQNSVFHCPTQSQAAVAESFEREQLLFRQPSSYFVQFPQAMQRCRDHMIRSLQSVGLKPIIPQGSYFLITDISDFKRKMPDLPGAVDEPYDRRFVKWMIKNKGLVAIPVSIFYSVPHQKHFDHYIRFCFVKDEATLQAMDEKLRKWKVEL
UniProt P22415: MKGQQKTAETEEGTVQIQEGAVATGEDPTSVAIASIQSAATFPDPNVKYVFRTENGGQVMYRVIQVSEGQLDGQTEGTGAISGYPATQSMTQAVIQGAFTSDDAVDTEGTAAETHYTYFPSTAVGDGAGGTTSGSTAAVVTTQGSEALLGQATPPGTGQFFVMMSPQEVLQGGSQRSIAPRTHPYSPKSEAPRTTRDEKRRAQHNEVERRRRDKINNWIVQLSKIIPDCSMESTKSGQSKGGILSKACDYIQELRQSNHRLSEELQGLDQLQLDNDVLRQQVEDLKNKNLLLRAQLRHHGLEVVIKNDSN
UniProt P78330: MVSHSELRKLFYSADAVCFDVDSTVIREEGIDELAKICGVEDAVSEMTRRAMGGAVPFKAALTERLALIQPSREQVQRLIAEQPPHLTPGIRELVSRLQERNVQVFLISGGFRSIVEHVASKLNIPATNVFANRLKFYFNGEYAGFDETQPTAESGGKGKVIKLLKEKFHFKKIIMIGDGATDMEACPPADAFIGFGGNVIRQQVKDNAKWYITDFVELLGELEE
UniProt O00244: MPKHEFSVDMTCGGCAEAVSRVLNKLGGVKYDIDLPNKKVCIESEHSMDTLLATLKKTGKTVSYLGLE
UniProt Q9H6X4: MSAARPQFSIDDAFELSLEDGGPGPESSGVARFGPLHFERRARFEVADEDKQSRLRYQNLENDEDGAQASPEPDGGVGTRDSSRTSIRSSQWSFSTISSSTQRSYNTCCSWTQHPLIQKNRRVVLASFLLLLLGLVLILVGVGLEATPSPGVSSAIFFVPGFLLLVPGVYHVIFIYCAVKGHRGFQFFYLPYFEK
UniProt P13010: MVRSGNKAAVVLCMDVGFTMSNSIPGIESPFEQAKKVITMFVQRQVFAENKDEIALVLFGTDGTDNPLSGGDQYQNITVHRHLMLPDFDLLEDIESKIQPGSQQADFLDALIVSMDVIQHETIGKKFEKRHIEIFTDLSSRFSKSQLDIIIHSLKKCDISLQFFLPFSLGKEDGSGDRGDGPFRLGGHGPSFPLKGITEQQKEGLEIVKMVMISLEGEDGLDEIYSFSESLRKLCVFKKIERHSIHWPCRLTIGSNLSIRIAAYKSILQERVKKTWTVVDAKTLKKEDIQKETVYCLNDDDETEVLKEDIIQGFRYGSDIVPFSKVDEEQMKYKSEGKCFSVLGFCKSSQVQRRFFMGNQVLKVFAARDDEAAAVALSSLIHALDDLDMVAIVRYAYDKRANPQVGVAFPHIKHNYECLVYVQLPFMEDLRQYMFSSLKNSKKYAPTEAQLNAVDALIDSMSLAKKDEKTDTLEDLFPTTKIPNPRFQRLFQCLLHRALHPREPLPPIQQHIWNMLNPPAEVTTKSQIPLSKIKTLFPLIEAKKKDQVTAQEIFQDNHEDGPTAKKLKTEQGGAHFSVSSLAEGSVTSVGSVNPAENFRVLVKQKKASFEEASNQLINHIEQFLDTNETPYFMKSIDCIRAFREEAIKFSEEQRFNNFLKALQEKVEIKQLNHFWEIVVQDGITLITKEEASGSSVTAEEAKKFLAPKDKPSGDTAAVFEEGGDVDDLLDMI
UniProt A4D1P6: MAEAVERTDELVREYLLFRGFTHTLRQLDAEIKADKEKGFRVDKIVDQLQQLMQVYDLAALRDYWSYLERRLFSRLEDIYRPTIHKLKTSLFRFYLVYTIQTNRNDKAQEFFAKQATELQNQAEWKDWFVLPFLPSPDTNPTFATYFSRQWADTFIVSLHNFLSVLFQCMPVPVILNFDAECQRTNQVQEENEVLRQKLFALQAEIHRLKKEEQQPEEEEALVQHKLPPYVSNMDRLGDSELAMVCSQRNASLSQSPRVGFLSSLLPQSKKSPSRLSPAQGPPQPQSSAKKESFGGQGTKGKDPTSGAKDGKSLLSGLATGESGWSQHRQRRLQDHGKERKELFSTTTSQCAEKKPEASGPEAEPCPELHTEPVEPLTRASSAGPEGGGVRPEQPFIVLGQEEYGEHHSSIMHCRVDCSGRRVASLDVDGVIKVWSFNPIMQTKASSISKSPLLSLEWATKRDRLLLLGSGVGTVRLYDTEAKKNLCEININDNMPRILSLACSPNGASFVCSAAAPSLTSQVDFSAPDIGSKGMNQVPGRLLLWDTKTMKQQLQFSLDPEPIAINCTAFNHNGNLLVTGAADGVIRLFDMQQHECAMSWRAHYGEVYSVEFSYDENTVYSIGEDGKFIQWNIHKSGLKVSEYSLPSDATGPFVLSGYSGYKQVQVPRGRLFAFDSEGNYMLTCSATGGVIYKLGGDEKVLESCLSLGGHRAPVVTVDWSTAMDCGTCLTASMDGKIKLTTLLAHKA

Target | NP40-soluble protein abundance (concentration: 0.1mM) | NP40-soluble protein abundance (concentration: 0.5mM)
C9JEH3 and related entries (UniProt Q13685) | 1.03 ± 0.028 | 1.04 ± 0.013
B0QY95 and related entries (UniProt Q9NQG6+B0QY95) | 0.991 ± 0.019 | 1.02 ± 0.025
B4DH23 and related entries (UniProt Q9NTJ4) | 1.02 ± 0.023 | 1.01 ± 0.064
D3YTK1 and related entries (UniProt Q9C0K0) | 1.03 ± 0.073 | 1.04 ± 0.058
D3YTB1 and related entries (UniProt P62910) | 1.03 ± 0.064 | 1.02 ± 0.071
C9JP16 and related entries (UniProt O75718) | 1.03 ± 0.029 | 0.983 ± 0.02
SMCHD1 (UniProt A6NHR9) | 1 ± 0.012 | 0.997 ± 0.037
A8MQ02 and related entries (UniProt P55196) | 0.991 ± 0.011 | 0.975 ± 0.012
RCCD1 (UniProt A6NED2) | 1.02 ± 0.077 | 1.04 ± 0.062
D6RAM1 and related entries (UniProt P31943) | 1.01 ± 0.028 | 0.992 ± 0.049
B7Z2R7 and related entries (UniProt Q5T8D3) | 0.971 ± 0.01 | 0.984 ± 0.011
B7Z6D5 and related entries (UniProt Q96GQ7) | 1.009 ± 0.0091 | 1.03 ± 0.032
B4DV51 and related entries (UniProt P62826) | 1.01 ± 0.012 | 1.04 ± 0.05
UniProt A2RTX5 and related entries | 1.06 ± 0.013 | 1.02 ± 0.022
C9JIF9 and related entries (UniProt P13798) | 0.988 ± 0.012 | 0.949 ± 0.037
C5orf51 (UniProt A6NDU8) | 0.991 ± 0.029 | 0.991 ± 0.015
B7ZAX5 and related entries (UniProt Q01415) | 0.9831 ± 0.00067 | 0.975 ± 0.051
A8MUM1 and related entries (UniProt Q53HC9) | 1 ± 0.039 | 0.988 ± 0.058
D6RHU3 and related entries (UniProt P55212) | 1.01 ± 0.038 | 0.977 ± 0.069
C9J712 and related entries (UniProt P35080) | 1.01 ± 0.046 | 1.07 ± 0.092
A6NHB5 and related entries (UniProt Q14202) | 0.986 ± 0.016 | 0.97 ± 0.017
B8ZZQ6 and related entries (UniProt P06454) | 0.989 ± 0.044 | 1.02 ± 0.053
D6RD24 and related entries (UniProt Q7Z6J8) | 1.02 ± 0.013 | 0.9993 ± 0.0084
B9EGE7 and related entries (UniProt Q8TCN5) | 0.969 ± 0.015 | 0.952 ± 0.032

Target | NP40-soluble protein abundance (concentration: 0.1mM) | NP40-soluble protein abundance (concentration: 0.5mM)
B4DQT1 and related entries (UniProt Q7L5Y9) | 1 ± 0.021 | 0.974 ± 0.023
B4DEM9 and related entries (UniProt Q9Y2S7) | 0.985 ± 0.015 | 0.992 ± 0.065
LIPT2 (UniProt A6NK58) | 1.002 ± 0.0097 | 0.9981 ± 0.0071
B4DZG7 and related entries (UniProt P40616) | 1.03 ± 0.036 | 1.06 ± 0.17
B7Z2L0 and related entries (UniProt Q9UHQ4) | 0.9855 ± 0.0061 | 1.01 ± 0.066
GTPBP10 (UniProt A4D1E9) | 0.988 ± 0.013 | 1.01 ± 0.013
B5MDE0 and related entries (UniProt Q96AA3) | 1.02 ± 0.069 | 0.967 ± 0.1
C9JRJ5 and related entries (UniProt Q9UGP4) | 1.02 ± 0.019 | 1.02 ± 0.065
FAM171A2 (UniProt A8MVW0) | 0.979 ± 0.019 | 0.983 ± 0.021
C9JEX3 and related entries (UniProt Q13614) | 0.9953 ± 0.0091 | 1.01 ± 0.029
B1AKL4 and related entries (UniProt Q9NRA8) | 0.991 ± 0.027 | 0.999 ± 0.058
UniProt C9JLW8 and related entries | 0.99607 ± 0.00032 | 0.981 ± 0.037
C9JHH7 and related entries (UniProt Q8WUX1) | 1.014 ± 0.0013 | 1.02 ± 0.014
A6NEP9 and related entries (UniProt Q8NG11) | 0.985 ± 0.044 | 1.01 ± 0.054
D6RBY0 and related entries (UniProt Q8TAC1) | 1.005 ± 0.0053 | 0.999 ± 0.014
UniProt A3KN83 and related entries | 0.991 ± 0.034 | 0.991 ± 0.019
MIF4GD (UniProt A9UHW6) | 0.992 ± 0.044 | 0.988 ± 0.042
D6RC04 and related entries (UniProt Q9Y6G5) | 1.01 ± 0.048 | 1.02 ± 0.056
A6NEM2 and related entries (UniProt P51610) | 0.994 ± 0.026 | 1.01 ± 0.042
B1AMS2 and related entries (UniProt Q14141) | 0.984 ± 0.032 | 1.01 ± 0.031
B4DR61 and related entries (UniProt P61619) | 1.06 ± 0.069 | 0.977 ± 0.17
C9IYN7 and related entries (UniProt Q0PNE2) | 1.02 ± 0.026 | 0.987 ± 0.12
B4DEN4 and related entries (UniProt Q8WV99) | 0.982 ± 0.04 | 0.981 ± 0.038
D6RD47 and related entries (UniProt P62266) | 1.06 ± 0.018 | 1 ± 0.06

A few values from the list.
NP40-soluble protein abundance (concentration: 0.1mM), B4DQT1 and related entries (UniProt Q7L5Y9) reads 1 ± 0.021
NP40-soluble protein abundance (concentration: 0.5mM), B4DEN4 and related entries (UniProt Q8WV99) reads 0.981 ± 0.038
NP40-soluble protein abundance (concentration: 0.1mM), UniProt A3KN83 and related entries reads 0.991 ± 0.034
NP40-soluble protein abundance (concentration: 0.1mM), D6RBY0 and related entries (UniProt Q8TAC1) reads 1.005 ± 0.0053

The list goes on:

Target | NP40-soluble protein abundance (concentration: 0.1mM) | NP40-soluble protein abundance (concentration: 0.5mM)
B5MCH7 and related entries (UniProt Q9Y6E2) | 1 ± 0.023 | 1.01 ± 0.041
B4DVL2 and related entries (UniProt Q02083) | 0.996 ± 0.019 | 1.02 ± 0.0027
D6R9V8 and related entries (UniProt Q9UKY7) | 0.954 ± 0.015 | 1.01 ± 0.076
C9JKQ2 and related entries (UniProt O43676) | 1 ± 0.08 | 1.05 ± 0.066
E5RFU2 and related entries (UniProt P34913) | 0.993 ± 0.037 | 0.984 ± 0.03
B8ZZS2 and related entries (UniProt Q13506) | 0.977 ± 0.023 | 1.01 ± 0.012
CNOT1 (UniProt A5YKK6) | 0.959 ± 0.039 | 0.944 ± 0.011
C9JJQ8 and related entries (UniProt P68366) | 1.04 ± 0.014 | 0.998 ± 0.035
B0QXZ5 and related entries (UniProt O96015) | 1.01 ± 0.019 | 0.999 ± 0.012
B7ZC38 and related entries (UniProt Q9NR46) | 0.968 ± 0.042 | 0.982 ± 0.016
B0QXZ9 and related entries (UniProt Q9UGU5) | 1.01 ± 0.036 | 1.01 ± 0.018
B3KVK2 and related entries (UniProt P62873) | 0.997 ± 0.061 | 0.94 ± 0.035
B5ME19 and related entries (UniProt Q99613+B5ME19) | 1.05 ± 0.041 | 1.03 ± 0.038
A6NIW2 and related entries (UniProt Q5JSL3) | 0.999 ± 0.048 | 0.937 ± 0.06
D6RCD0 and related entries (UniProt Q8NBQ5) | 1.02 ± 0.059 | 1.01 ± 0.028
C9JA08 and related entries (UniProt Q96D46) | 0.996 ± 0.025 | 0.997 ± 0.012
E5RHG8 and related entries (UniProt Q15369) | 0.999 ± 0.013 | 1.06 ± 0.052
C9JVP0 and related entries (UniProt Q9UPW0) | 0.9936 ± 0.0081 | 0.997 ± 0.0039
B7Z4W5 and related entries (UniProt Q16773+B7Z4W5) | 1.05 ± 0.064 | 1.05 ± 0.19
C9IYN3 and related entries (UniProt Q8WVV9+D6W592+C9IYN3) | 1 ± 0.018 | 0.985 ± 0.046
C9K025 and related entries (UniProt P18077) | 1.0101 ± 0.00053 | 1.01 ± 0.031
B7WPE2 and related entries (UniProt Q32P44) | 1.01 ± 0.016 | 0.985 ± 0.017
B1AQP1 and related entries (UniProt P22415) | 1.03 ± 0.066 | 1.03 ± 0.096
B9EGA3 and related entries (UniProt Q92925) | 1.02 ± 0.02 | 1.01 ± 0.043

Target | NP40-soluble protein abundance (concentration: 0.1mM) | NP40-soluble protein abundance (concentration: 0.5mM)
C9JBI3 and related entries (UniProt P78330) | 0.995 ± 0.023 | 0.977 ± 0.046
E5RGN3 and related entries (UniProt O00244) | 0.958 ± 0.01 | 0.996 ± 0.047
B7WPL9 and related entries (UniProt Q6PFW1) | 1 ± 0.011 | 0.9894 ± 0.0074
B4E0E3 and related entries (UniProt Q9H6X4) | 0.995 ± 0.051 | 0.99 ± 0.048
A8MVZ6 and related entries (UniProt Q96G01) | 1.01 ± 0.0047 | 0.982 ± 0.031
E3W994 and related entries (UniProt O75122) | 0.993 ± 0.055 | 0.998 ± 0.026
C9JLV4 and related entries (UniProt O14727) | 0.997 ± 0.055 | 1.01 ± 0.057
CCDC88B (UniProt A6NC98) | 0.995 ± 0.0073 | 0.991 ± 0.027
D6RF48 and related entries (UniProt Q9P2W9) | 1 ± 0.021 | 0.981 ± 0.012
C9J5C3 and related entries (UniProt Q9BUL8) | 1.01 ± 0.032 | 1.04 ± 0.015
E5RGX5 and related entries (UniProt Q93045) | 1.01 ± 0.066 | 0.981 ± 0.059
C9JCW7 and related entries (UniProt Q9BVT8) | 0.979 ± 0.032 | 0.995 ± 0.027
B4DRG3 and related entries (UniProt Q9H6V9+B5MCE2+B5MDU6+B4DRG3) | 1.03 ± 0.022 | 1.01 ± 0.025
C9JJ34 and related entries (UniProt P43487) | 0.997 ± 0.1 | 1.03 ± 0.1
B2R5W2 and related entries (UniProt P07910) | 0.954 ± 0.15 | 1.03 ± 0.11
C9JZ81 and related entries (UniProt P13010) | 0.999 ± 0.018 | 1.01 ± 0.046
C9J9F4 and related entries (UniProt Q9Y4C2) | 0.997 ± 0.036 | 0.981 ± 0.057
B1AKN5 and related entries (UniProt Q12857) | 1.01 ± 0.066 | 1.01 ± 0.047
B1AKP1 and related entries (UniProt O60636) | 1.03 ± 0.012 | 1 ± 0.019
A8MX75 and related entries (UniProt P18074) | 1.04 ± 0.028 | 1 ± 0.033
B0QY89 and related entries (UniProt Q9Y262) | 1.04 ± 0.019 | 1.02 ± 0.085
B8ZZA8 and related entries (UniProt O94925) | 0.98 ± 0.019 | 0.9869 ± 0.0083
E2QRD4 and related entries (UniProt Q6ZRQ5) | 1.01 ± 0.037 | 0.988 ± 0.019
UniProt A4D1P6 and related entries | 1.032 ± 0.009 | 1.04 ± 0.074
